{"source": "PubChem BioAssay AID1159584 | Peter MacCallum Cancer Centre | 2016", "purpose": "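Genes whose loss is lethal only together with E-cadherin loss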 (primary screen)", "system": "human MCF10A breast epithelial cells, parental and CDH1-null", "reagents": "siRNA against human genes", "detection": "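Cell viability by CellTiter-Glo ATP luminescence, each line scaled to the mean of mock wells across plates, then CDH1-null over parental ratio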", "reading the numbers": "CDH1-null / parental viability ratio: higher = CDH1-null cells survive relatively better than parental", "note": "This is an unselected part of about 18,000 deposited reagents. Not all columns of the deposit are shown. Not given: the amount of reagent, the time to read-out."}
{"gene knocked down": "LILRB3 (leukocyte immunoglobulin like receptor B3)", "CDH1-null / parental viability ratio": 0.88}
{"gene knocked down": "CHML (CHM like Rab escort protein)", "CDH1-null / parental viability ratio": 1.23}
{"gene knocked down": "ZCCHC7 (zinc finger CCHC-type containing 7)", "CDH1-null / parental viability ratio": 0.96}
{"gene knocked down": "OR5B2 (olfactory receptor family 5 subfamily B member 2)", "CDH1-null / parental viability ratio": 1.11}
{"gene knocked down": "OR2T12 (olfactory receptor family 2 subfamily T member 12)", "CDH1-null / parental viability ratio": 1.47}
{"gene knocked down": "M6PR (mannose-6-phosphate receptor, cation dependent)", "CDH1-null / parental viability ratio": 1.06}
{"gene knocked down": "IL17A (interleukin 17A)", "CDH1-null / parental viability ratio": 1.35}
{"gene knocked down": "SAGE1 (sarcoma antigen 1)", "CDH1-null / parental viability ratio": 1.22}
{"gene knocked down": "TMEM236 (transmembrane protein 236)", "CDH1-null / parental viability ratio": 0.93}
{"gene knocked down": "TYR (tyrosinase)", "CDH1-null / parental viability ratio": 1.76}
{"gene knocked down": "FASLG (Fas ligand)", "CDH1-null / parental viability ratio": 0.86}
{"gene knocked down": "HCRTR1 (hypocretin receptor 1)", "CDH1-null / parental viability ratio": 0.78}
{"gene knocked down": "VIP (vasoactive intestinal peptide)", "CDH1-null / parental viability ratio": 0.82}
{"gene knocked down": "CATSPERG (catsper channel auxiliary subunit gamma)", "CDH1-null / parental viability ratio": 1.7}
{"gene knocked down": "CXCL3 (C-X-C motif chemokine ligand 3)", "CDH1-null / parental viability ratio": 1.09}
{"gene knocked down": "SPATA7 (spermatogenesis associated 7)", "CDH1-null / parental viability ratio": 0.96}
{"gene knocked down": "ZBTB6 (zinc finger and BTB domain containing 6)", "CDH1-null / parental viability ratio": 1.12}
{"gene knocked down": "TSACC (TSSK6 activating cochaperone)", "CDH1-null / parental viability ratio": 1.07}
{"gene knocked down": "KCNG4", "CDH1-null / parental viability ratio": 1.13}

The list goes on; the last 4 above are carried over.
{"gene knocked down": "SPATA7 (spermatogenesis associated 7)", "CDH1-null / parental viability ratio": 0.96}
{"gene knocked down": "ZBTB6 (zinc finger and BTB domain containing 6)", "CDH1-null / parental viability ratio": 1.12}
{"gene knocked down": "TSACC (TSSK6 activating cochaperone)", "CDH1-null / parental viability ratio": 1.07}
{"gene knocked down": "KCNG4", "CDH1-null / parental viability ratio": 1.13}
{"gene knocked down": "HNRNPD (heterogeneous nuclear ribonucleoprotein D)", "CDH1-null / parental viability ratio": 0.96}
{"gene knocked down": "SMARCD3 (SWI/SNF related BAF chromatin remodeling complex subunit D3)", "CDH1-null / parental viability ratio": 1.04}
{"gene knocked down": "TGM2 (transglutaminase 2)", "CDH1-null / parental viability ratio": 0.98}
{"gene knocked down": "EXTL2 (exostosin like glycosyltransferase 2)", "CDH1-null / parental viability ratio": 0.94}
{"gene knocked down": "SLC39A3", "CDH1-null / parental viability ratio": 0.89}
{"gene knocked down": "ERAL1 (Era like 12S mitochondrial rRNA chaperone 1)", "CDH1-null / parental viability ratio": 0.92}
{"gene knocked down": "IARS2 (isoleucyl-tRNA synthetase 2, mitochondrial)", "CDH1-null / parental viability ratio": 1.14}
{"gene knocked down": "TTC5 (tetratricopeptide repeat domain 5)", "CDH1-null / parental viability ratio": 1}
{"gene knocked down": "AMBP (alpha-1-microglobulin/bikunin precursor)", "CDH1-null / parental viability ratio": 1.14}
{"gene knocked down": "SPON1 (spondin 1)", "CDH1-null / parental viability ratio": 1.13}
{"gene knocked down": "GPRC5A (G protein-coupled receptor class C group 5 member A)", "CDH1-null / parental viability ratio": 0.79}
{"gene knocked down": "PEX11G (peroxisomal biogenesis factor 11 gamma)", "CDH1-null / parental viability ratio": 0.9}
{"gene knocked down": "CEP83 (centrosomal protein 83)", "CDH1-null / parental viability ratio": 0.9}
{"gene knocked down": "ALAD (aminolevulinate dehydratase)", "CDH1-null / parental viability ratio": 1.09}
{"gene knocked down": "LYPD3 (LY6/PLAUR domain containing 3)", "CDH1-null / parental viability ratio": 1.07}
{"gene knocked down": "SIAH2 (siah E3 ubiquitin protein ligase 2)", "CDH1-null / parental viability ratio": 0.99}
{"gene knocked down": "RABL3 (RAB, member of RAS oncogene family like 3)", "CDH1-null / parental viability ratio": 1.05}
{"gene knocked down": "DDX49 (DEAD-box helicase 49)", "CDH1-null / parental viability ratio": 0.95}
{"gene knocked down": "ZNF704 (zinc finger protein 704)", "CDH1-null / parental viability ratio": 0.76}
{"gene knocked down": "DOCK4 (dedicator of cytokinesis 4)", "CDH1-null / parental viability ratio": 1.01}
{"gene knocked down": "ALDH2 (aldehyde dehydrogenase 2 family member)", "CDH1-null / parental viability ratio": 0.82}
{"gene knocked down": "MYG1 (MYG1 exonuclease)", "CDH1-null / parental viability ratio": 0.73}
{"gene knocked down": "YY1 (YY1 transcription factor)", "CDH1-null / parental viability ratio": 1}
{"gene knocked down": "PUF60 (poly(U) binding splicing factor 60)", "CDH1-null / parental viability ratio": 1.5}
{"gene knocked down": "PTDSS1 (phosphatidylserine synthase 1)", "CDH1-null / parental viability ratio": 0.89}
{"gene knocked down": "CASP8AP2 (caspase 8 associated protein 2)", "CDH1-null / parental viability ratio": 0.7}
